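The test systems are human melanoma cell lines, treated with two drugs together for 72 h and then stained and imaged. Values are the share of nuclei positive for cleaved PARP as a percentage of the same share in the DMSO control: 100 is the control level, higher means more apoptosis. Every drug was used at one fixed concentration, the higher of two screened. These are primary screening values without error estimates. The marker varies much from line to line, for technical or biological reasons.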 An unselected part of the screen is shown. An entry leaves out what has no value listed here. A dash means that no value is listed here.

Every entry is a combination with XAV939 at 10 µM: Oc1nc(-c2ccc(C(F)(F)F)cc2)nc2c1CSCC2

Compounds and concentrations:
LFM-A13 (10 µM): C/C(O)=C(\C#N)C(=O)Nc1cc(Br)ccc1Br
sunitinib (2 µM): CCN(CC)CCNC(=O)c1c(C)[nH]c(/C=C2\C(=O)Nc3ccc(F)cc32)c1C
BI-78D3 (1 µM): O=c1[nH]nc(Sc2ncc([N+](=O)[O-])s2)n1-c1ccc2c(c1)OCCO2
temozolomide (10 µM): Cn1nnc2c(C(N)=O)ncn2c1=O
ENMD-2076 (0.2 µM): Cc1cc(Nc2cc(N3CCN(C)CC3)nc(/C=C/c3ccccc3)n2)n[nH]1
PF-04217903 (5 µM): OCCn1cc(-c2cnc3nnn(Cc4ccc5ncccc5c4)c3n2)cn1
dovitinib (0.5 µM): CN1CCN(c2ccc3nc(-c4c(N)c5c(F)cccc5[nH]c4=O)[nH]c3c2)CC1
darinaparsin (2 µM): C[As](C)SC[C@H](NC(=O)CC[C@H](N)C(=O)O)C(=O)NCC(=O)O
fingolimod (10 µM): CCCCCCCCc1ccc(CCC(N)(CO)CO)cc1
dorsomorphin (2 µM): c1cc(-c2cnn3cc(-c4ccc(OCCN5CCCCC5)cc4)cnc23)ccn1
CX-4945 (2 µM): O=C(O)c1ccc2c(c1)nc(Nc1cccc(Cl)c1)c1ccncc12
SNS-032 (0.05 µM): CC(C)(C)c1cnc(CSc2cnc(NC(=O)C3CCNCC3)s2)o1
vismodegib (5 µM): CS(=O)(=O)c1ccc(C(=O)Nc2ccc(Cl)c(-c3ccccn3)c2)c(Cl)c1
AS-252424 (5 µM): O=C1NC(=O)/C(=C/c2ccc(-c3ccc(F)cc3O)o2)S1
BI-D1870 (1 µM): CC(C)CCN1c2nc(Nc3cc(F)c(O)c(F)c3)ncc2N(C)C(=O)C1C (stereo not shown)
ruxolitinib (5 µM): N#CC[C@H](C1CCCC1)n1cc(-c2ncnc3[nH]ccc23)cn1

Second drug,C32,MZ2-MEL,COLO 792,501mel,RPMI-7951,UACC-257,WM3619,SK-MEL-5,G-361,MEL-HO,MeWo,IST-MEL1,WM115,COLO 800,WM1745
ruxolitinib,68.5,58.5,52.7,42.6,225,98.0,91.7,120,99.6,87.3,49.2,129,108,157,-
temozolomide,83.7,-,239,-,62.5,24.3,142,185,78.1,51.9,81.1,65.6,166,125,133
dovitinib,87.7,25.6,169,105,139,133,127,148,165,328,60.2,182,119,99.0,-
fingolimod,119,75.0,168,985,239,34.9,146,96.5,144,44.2,22.7,149,305,186,-
BI-D1870,83.4,260,108,135,42.2,59.8,111,152,47.6,223,80.8,61.7,52.4,186,135
AS-252424,92.6,141,134,132,185,134,263,140,151,57.5,15.3,56.9,46.4,65.7,146
SNS-032,100,53.0,162,72.9,162,84.5,191,339,81.9,55.1,54.4,31.0,751,31.1,107
ENMD-2076,79.7,71.6,114,33.9,56.0,61.4,92.2,123,154,95.2,89.6,102,127,174,-
PF-04217903,85.1,99.6,84.2,130,60.4,47.6,97.9,66.0,29.7,94.1,55.0,65.2,61.8,31.5,122
dorsomorphin,137,105,111,181,182,72.3,142,183,155,54.2,45.3,99.3,270,169,205
BI-78D3,66.2,75.2,126,99.3,67.0,102,111,118,115,178,163,98.5,128,265,-
CX-4945,79.7,118,190,72.3,178,63.8,138,151,129,236,96.2,147,51.4,227,-
vismodegib,72.7,46.9,27.7,90.1,72.7,109,102,368,130,121,133,135,55.9,74.3,-
darinaparsin,81.9,86.0,87.7,308,148,135,110,190,40.7,197,100,26.0,102,133,116
sunitinib,168,84.2,285,251,121,64.2,121,231,184,98.4,157,72.2,328,177,-
LFM-A13,83.4,36.8,120,61.7,70.0,56.8,112,78.5,30.5,99.6,39.3,60.0,164,44.2,101

For reference, 2 entries once more:

{"second drug": "darinaparsin", "C32": 81.9, "MZ2-MEL": 86.0, "COLO 792": 87.7, "501mel": 308, "RPMI-7951": 148, "UACC-257": 135, "WM3619": 110, "SK-MEL-5": 190, "G-361": 40.7, "MEL-HO": 197, "MeWo": 100, "IST-MEL1": 26.0, "WM115": 102, "COLO 800": 133, "WM1745": 116}
{"second drug": "ENMD-2076", "C32": 79.7, "MZ2-MEL": 71.6, "COLO 792": 114, "501mel": 33.9, "RPMI-7951": 56.0, "UACC-257": 61.4, "WM3619": 92.2, "SK-MEL-5": 123, "G-361": 154, "MEL-HO": 95.2, "MeWo": 89.6, "IST-MEL1": 102, "WM115": 127, "COLO 800": 174}

Source: doi:10.1371/journal.pone.0140310, primary screening data, rounded.